{"source": "patent US5520901A", "about": "“Method for the recovery of iodine from an environment” (General Electric Company, priority 1993, dated 1996)", "key": {"[1]": {"assay": "Recovery of iodine from treated phenolic resin with calcium hydroxide (unaccounted iodine)"}, "[2]": {"assay": "Residual mercury in the solids after mercury removal and iodine recovery"}, "[3]": {"assay": "Recovery of iodine from mercury-decontaminated phenolic resin with calcium sulfite (amount of iodine unaccounted for)"}, "[4]": {"assay": "Recovery of iodine from treated phenolic resin with sodium sulfite (unrecovered iodine)"}}}
{"smiles": "[Ca+2].[OH-].[OH-]", "note": "[Ca(OH)2, calcium hydroxide]", "values": [{"measurement": "unaccounted iodine", "setting": "[1]; 0.2 g Ca(OH)2, 50 mL water, 65° C., 3 hours, before 0.165 g/g", "result": "0.07 g I per gram of phenolic resin"}, {"measurement": "g Lost I/g Material", "setting": "[1]; additive 4%, 3 hr, 65 °C, none 0.17, water 0.12", "result": 0.06, "unit": "g Lost I/g Material"}, {"measurement": "g Lost I/g Material", "setting": "[1]; additive 40%, 3 hr, 22 °C", "result": 0.07, "unit": "g Lost I/g Material"}, {"measurement": "g Lost I/g Material", "setting": "[1]; additive 40%, 3 hr, 65 °C", "result": 0.05, "unit": "g Lost I/g Material"}, {"measurement": "g Lost I/g Material", "setting": "[1]; additive 40%, 21 hr, 65 °C", "result": 0.06, "unit": "g Lost I/g Material"}, {"measurement": "mercury content of solids", "setting": "[2]; after KI/I2 extraction and 0.2 g Ca(OH)2, 65° C., 3 hours, initially 371 ppm", "result": 27, "unit": "ppm"}]}
{"smiles": "O=S([O-])[O-].[Ca+2]", "note": "[Calcium Sulfite, calcium sulfite]", "values": [{"measurement": "iodine unaccounted for after analysis of all solutions for iodine and iodide", "setting": "[3]; 3.9 g CaSO3.2H2O, 50 mL water, 45° C., 16 hours, initial missing iodine 0.18 g/g", "result": 0.03, "unit": "g iodine/g phenolic resin"}, {"measurement": "g Lost I/g Material", "setting": "[3]; 1 hr, 22 °C, 0.4 g CaSO3.2H2O/g material, liquid/solid ratio 5, untreated 0.197", "result": 0.116, "unit": "g Lost I/g Material"}, {"measurement": "g Lost I/g Material", "setting": "[3]; 6 hr, 22 °C, 0.2 g/g, liquid/solid ratio 5", "result": 0.070, "unit": "g Lost I/g Material"}, {"measurement": "g Lost I/g Material", "setting": "[3]; 6 hr, 22 °C, 0.4 g/g, liquid/solid ratio 2", "result": 0.078, "unit": "g Lost I/g Material"}, {"measurement": "g Lost I/g Material", "setting": "[3]; 6 hr, 22 °C, 0.4 g/g, liquid/solid ratio 5", "result": 0.072, "unit": "g Lost I/g Material"}, {"measurement": "g Lost I/g Material", "setting": "[3]; 6 hr, 22 °C, 0.4 g/g, liquid/solid ratio 10", "result": 0.080, "unit": "g Lost I/g Material"}, {"measurement": "g Lost I/g Material", "setting": "[3]; 6 hr, 22 °C, 1.0 g/g, liquid/solid ratio 5", "result": 0.141, "unit": "g Lost I/g Material"}, {"measurement": "g Lost I/g Material", "setting": "[3]; 6 hr, 45 °C, 0.4 g/g, liquid/solid ratio 5", "result": 0.059, "unit": "g Lost I/g Material"}, {"measurement": "g Lost I/g Material", "setting": "[3]; 6 hr, 65 °C, 0.4 g/g, liquid/solid ratio 5", "result": 0.007, "unit": "g Lost I/g Material"}, {"measurement": "g Lost I/g Material", "setting": "[3]; 16 hr, 22 °C, 0.4 g/g, liquid/solid ratio 5", "result": 0.073, "unit": "g Lost I/g Material"}, {"measurement": "mercury content of solids", "setting": "[2]; after KI/I2 extraction and 3.9 g calcium sulfite, 45° C., 16 hours, initially 225 ppm", "result": 30, "unit": "ppm"}]}
{"smiles": "O=S([O-])[O-].[Na+].[Na+]", "note": "[Sodium Sulfite, sodium sulfite]", "values": [{"measurement": "g Lost I/g Material", "setting": "[4]; Table 2: 0.5 hr, 22 °C, 0.1 M, ratio 10/1, water rinse", "result": 0.06, "unit": "g Lost I/g Material"}, {"measurement": "g Lost I/g Material", "setting": "[4]; Table 2: 1 hr, 22 °C, 0.05 M, ratio 10/1, water rinse", "result": 0.06, "unit": "g Lost I/g Material"}, {"measurement": "g Lost I/g Material", "setting": "[4]; Table 2: 1 hr, 22 °C, 0.1 M, ratio 5/1, water rinse", "result": 0.03, "unit": "g Lost I/g Material"}, {"measurement": "g Lost I/g Material", "setting": "[4]; Table 2: 1 hr, 22 °C, 0.1 M, ratio 10/1, no water rinse, untreated 0.13", "result": 0.07, "unit": "g Lost I/g Material"}, {"measurement": "g Lost I/g Material", "setting": "[4]; Table 2: 1 hr, 22 °C, 0.1 M, ratio 10/1, water rinse", "result": 0.07, "unit": "g Lost I/g Material"}, {"measurement": "g Lost I/g Material", "setting": "[4]; Table 2: 1 hr, 22 °C, 0.1 M, ratio 20/1, water rinse", "result": 0.04, "unit": "g Lost I/g Material"}, {"measurement": "g Lost I/g Material", "setting": "[4]; Table 2: 1 hr, 22 °C, 0.5 M, ratio 10/1, water rinse", "result": "< 0.01", "unit": "g Lost I/g Material"}, {"measurement": "g Lost I/g Material", "setting": "[4]; Table 2: 1 hr, 44 °C, 0.1 M, ratio 10/1, water rinse", "result": 0.03, "unit": "g Lost I/g Material"}, {"measurement": "g Lost I/g Material", "setting": "[4]; Table 2: 4 hr, 22 °C, 0.1 M, ratio 10/1, water rinse", "result": 0.04, "unit": "g Lost I/g Material"}, {"measurement": "g Lost I/g Material", "setting": "[4]; Table 3: 1 hr, 22 °C, 0.1 M, ratio 5/1, water rinse", "result": 0.05, "unit": "g Lost I/g Material"}, {"measurement": "g Lost I/g Material", "setting": "[4]; Table 3: 1 hr, 22 °C, 0.5 M, ratio 5/1, water rinse", "result": 0.05, "unit": "g Lost I/g Material"}, {"measurement": "g Lost I/g Material", "setting": "[4]; Table 3: 1 hr, 45 °C, 0.1 M, ratio 5/1, water rinse", "result": 0.06, "unit": "g Lost I/g Material"}, {"measurement": "g Lost I/g Material", "setting": "[4]; Table 3: 1 hr, 45 °C, 0.5 M, ratio 5/1, water rinse", "result": 0.04, "unit": "g Lost I/g Material"}, {"measurement": "g Lost I/g Material", "setting": "[4]; Table 3: 16 hr, 22 °C, 0.1 M, ratio 5/1, water rinse", "result": 0.06, "unit": "g Lost I/g Material"}, {"measurement": "g Lost I/g Material", "setting": "[4]; Table 3: 16 hr, 22 °C, 0.5 M, ratio 5/1, water rinse", "result": 0.03, "unit": "g Lost I/g Material"}, {"measurement": "g Lost I/g Material", "setting": "[4]; Table 3: 16 hr, 45 °C, 0.1 M, ratio 5/1, water rinse", "result": 0.04, "unit": "g Lost I/g Material"}, {"measurement": "g Lost I/g Material", "setting": "[4]; Table 3: 16 hr, 45 °C, 0.5 M, ratio 5/1, untreated 0.16", "result": 0.03, "unit": "g Lost I/g Material"}]}
